The record followed here is paper PMC7026249.

Amino acid sequences for entries named in this document (tags omitted). A change or cut given only in a name is not applied to a line headed by its entry.
UniProt Q99020: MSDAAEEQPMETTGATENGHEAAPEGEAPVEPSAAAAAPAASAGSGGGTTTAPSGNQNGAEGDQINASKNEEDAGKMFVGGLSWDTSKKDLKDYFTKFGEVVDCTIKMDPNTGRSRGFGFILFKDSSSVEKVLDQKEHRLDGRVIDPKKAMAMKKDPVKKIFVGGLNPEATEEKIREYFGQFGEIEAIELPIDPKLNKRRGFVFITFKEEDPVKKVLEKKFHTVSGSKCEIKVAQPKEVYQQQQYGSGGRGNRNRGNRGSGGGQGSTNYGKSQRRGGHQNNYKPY

For at least one entry, the source does not settle the construct or the ends of the probe. No signal at the amounts used counts as a negative. A weaker result is weaker than the reference pair of the same experiment.

The series concerns the target hnRNPAB (CBF-A) (Mus musculus (C57BL/6 E16.5 cortex cDNA)) (UniProt Q99020). The series can be described thus: pull-down. To be noted: Dig-RNA pull-down: 50 mM Tris-HCl pH 7.4, 150 mM NaCl, 0.5% NP-40, 2 mM RVC, 4 C 4 h, recombinant protein, protein details: C-terminal 3xFlag, label: digoxigenin, probe letters rebuilt from the primers and the genome.

On to “GGAGAACUCCCCUGCCUCAAAGGAACGAGAUGACGAAUGAGGAUGCCUAAAACCUCCUCUGGCCUCCGAGAGUCCAUGGGUCCAAGCACCUGCACAUGACACAUGCAUAAGUAAUGAUCACCCAGUGCCCAAUGCUGAGCCUGUGGCUACGGAGAGAGAGAGCAGACAUAUCUUCUUGCCUCUGGCUACUAGACUGCCCUGAGAUCAGAGAGAUCCUGCACCAGGUGCCUGGGUUGUACAGAACCAGGGACGGAACGUAUGGUGUUGGGUGUGAUAGGUAAUCACUUAGCUACAUCACCCACAUCCCUGCCUGUCACUGUCUUUAAUAUACAUCAUAUCUUAAGCGGUACCUCUGUUUGGUCUCAAACUACAACUUAGCUGGAAGCCCACACCCUGCCAUUUCUCCCCAAGUGCCCGCACUACAAUCCCUCCCACGGGGUGUAGUUCCUCUUUCCUGGGUAAAUUAUUUUGCAGGUGGUGUCACU [LncKdm2b 909-1391]”, for which the binding result is reported as “no binding”.

On to “GGAGACUGCAUAACUUUUAAACUCCCGGGGCUGAAAUAAUAAUAUGGAGACACACGCACAGGUACAGGAAAUACAGCCAGUCCACAGCCUUUUCAGACUGCAGCUGACCGGAAGAAAGCCUUUGGUUCAUUCAUUCGGAUAGCCUCGGUAGUACAGCCCUGAAAUAGAAGUUGGGCUUUUAAAGAGAAAGGAAAAAAAGUCUCUACACUCGCUGAGAAGAGAUAAAUCGAUACACAGGAGGGAAUAGAGAAUCGGAUUCAGCGUCUCUAAUGCAGGCAGGCAAAAGGCUUCUGUGCCCUGUGGCUUGAAGUAAAAAAGAAACAAAACUCUUUAACAACUGUCCAGCCUGACUCUUGGAGAACGGCUUAAUGUUCUACUUAGCAUUCUGGGUGGUUUUUUGUUUUUCCAGUGUGCCUCUUCCUGUGUAAGGACUGGAAAGGACCCUGGAAACCACAG [LncKdm2b 455-908]”, for which the binding result is on record as “binds”.

With “GGGACUUUUGGAGGGCUGAGUUGCAGGCGGCGGGCGCAUCCCAGAGAUGGCGGGGCAGGGAGGGAGGGAAAGAGAGGAGGGGGUGGGGAGGGAGGUGCAGAUUUGCACGGAUGGCCUCAGCGGGAGGCGCGGAAAUGCUAGCCAAGCCUGCUGGCGUGAAAGCCCCCGGGGCCUGGCACCCCCCAAAACGACCCCCCACCUCUGCCCCUGCCCCCUCUUGCUUGGGUUACGCAGGGCUGUCCCUCUCUUCCUUCACCCACCUUUCCUCAUUACCUAUGCUGGCGACCUAAAUUCAAAGUAUUUUGUAUGUGUGAUUUCUUUUUCUGUUUUGCUUUUCUACUGCAUGCCUGGGGGGAGGGGCCAGCCUGUCCAGACCCUUAUCCAUUUGCGAACCUGCCAUAUGGAGGAGGCAUCUGAGGGGCUCAGAAAGAAAUUACCUCAGCACUGUAUCUGUAC [LncKdm2b 1-454]”, the binding result (weaker than 455-908) is recorded as “binds more weakly”.
